The target in one experiment is OPTN-GST (human) (UniProt Q96CV9). The experiment is described as follows: microscopy-based bead assay; Fig. 6e, Extended Data Fig. 10: GST, OPTN-GST or GST–NAP1 on glutathione beads; EGFP–TBK1 WT, KD or E696K 250 nM; 25 mM Tris-HCl pH 7.4, 150 mM NaCl, 1 mM DTT; 30 min; Extended Data Fig. 10 with and without ATP/MgCl2 (interaction weakened with ATP/MgCl2); confocal imaging; both purified.

Chains of the proteins cited; added tags and fusions are not shown. Lines headed by an entry give the natural chain unless they say otherwise; changes in a name come on top.
UniProt Q96CV9: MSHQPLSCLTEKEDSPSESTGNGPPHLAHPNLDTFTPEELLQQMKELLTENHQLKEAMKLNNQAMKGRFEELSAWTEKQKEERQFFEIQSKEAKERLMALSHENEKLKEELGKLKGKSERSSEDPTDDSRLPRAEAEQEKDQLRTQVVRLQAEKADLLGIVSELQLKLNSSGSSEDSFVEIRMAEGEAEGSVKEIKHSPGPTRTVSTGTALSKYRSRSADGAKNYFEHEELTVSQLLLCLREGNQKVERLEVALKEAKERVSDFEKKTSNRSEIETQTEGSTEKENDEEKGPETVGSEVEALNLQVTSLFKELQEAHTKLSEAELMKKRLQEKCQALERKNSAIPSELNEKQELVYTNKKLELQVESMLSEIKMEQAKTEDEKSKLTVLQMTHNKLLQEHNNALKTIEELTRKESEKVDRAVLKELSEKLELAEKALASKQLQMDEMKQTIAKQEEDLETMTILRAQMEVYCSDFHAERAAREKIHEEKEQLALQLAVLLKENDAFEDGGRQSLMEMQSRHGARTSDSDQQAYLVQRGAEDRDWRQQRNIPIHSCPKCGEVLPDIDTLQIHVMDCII
UniProt Q9UHD2: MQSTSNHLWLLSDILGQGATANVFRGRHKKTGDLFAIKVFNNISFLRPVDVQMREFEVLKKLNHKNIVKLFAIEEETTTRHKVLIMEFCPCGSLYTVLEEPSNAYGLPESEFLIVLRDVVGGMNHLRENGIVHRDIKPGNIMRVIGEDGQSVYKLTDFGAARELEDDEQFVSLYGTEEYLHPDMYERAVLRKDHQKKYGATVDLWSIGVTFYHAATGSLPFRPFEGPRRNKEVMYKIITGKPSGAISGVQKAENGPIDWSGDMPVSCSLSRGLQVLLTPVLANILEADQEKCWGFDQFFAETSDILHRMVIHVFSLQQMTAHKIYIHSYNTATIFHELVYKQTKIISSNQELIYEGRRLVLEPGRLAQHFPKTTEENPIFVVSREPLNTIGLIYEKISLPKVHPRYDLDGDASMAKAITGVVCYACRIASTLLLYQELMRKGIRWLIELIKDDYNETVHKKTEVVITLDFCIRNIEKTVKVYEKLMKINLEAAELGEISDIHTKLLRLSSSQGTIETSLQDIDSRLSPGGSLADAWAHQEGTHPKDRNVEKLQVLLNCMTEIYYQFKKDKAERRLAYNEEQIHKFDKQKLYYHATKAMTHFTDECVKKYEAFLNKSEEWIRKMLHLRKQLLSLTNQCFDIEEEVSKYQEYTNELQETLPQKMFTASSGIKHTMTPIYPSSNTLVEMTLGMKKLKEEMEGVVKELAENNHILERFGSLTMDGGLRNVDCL
UniProt Q8TDY2: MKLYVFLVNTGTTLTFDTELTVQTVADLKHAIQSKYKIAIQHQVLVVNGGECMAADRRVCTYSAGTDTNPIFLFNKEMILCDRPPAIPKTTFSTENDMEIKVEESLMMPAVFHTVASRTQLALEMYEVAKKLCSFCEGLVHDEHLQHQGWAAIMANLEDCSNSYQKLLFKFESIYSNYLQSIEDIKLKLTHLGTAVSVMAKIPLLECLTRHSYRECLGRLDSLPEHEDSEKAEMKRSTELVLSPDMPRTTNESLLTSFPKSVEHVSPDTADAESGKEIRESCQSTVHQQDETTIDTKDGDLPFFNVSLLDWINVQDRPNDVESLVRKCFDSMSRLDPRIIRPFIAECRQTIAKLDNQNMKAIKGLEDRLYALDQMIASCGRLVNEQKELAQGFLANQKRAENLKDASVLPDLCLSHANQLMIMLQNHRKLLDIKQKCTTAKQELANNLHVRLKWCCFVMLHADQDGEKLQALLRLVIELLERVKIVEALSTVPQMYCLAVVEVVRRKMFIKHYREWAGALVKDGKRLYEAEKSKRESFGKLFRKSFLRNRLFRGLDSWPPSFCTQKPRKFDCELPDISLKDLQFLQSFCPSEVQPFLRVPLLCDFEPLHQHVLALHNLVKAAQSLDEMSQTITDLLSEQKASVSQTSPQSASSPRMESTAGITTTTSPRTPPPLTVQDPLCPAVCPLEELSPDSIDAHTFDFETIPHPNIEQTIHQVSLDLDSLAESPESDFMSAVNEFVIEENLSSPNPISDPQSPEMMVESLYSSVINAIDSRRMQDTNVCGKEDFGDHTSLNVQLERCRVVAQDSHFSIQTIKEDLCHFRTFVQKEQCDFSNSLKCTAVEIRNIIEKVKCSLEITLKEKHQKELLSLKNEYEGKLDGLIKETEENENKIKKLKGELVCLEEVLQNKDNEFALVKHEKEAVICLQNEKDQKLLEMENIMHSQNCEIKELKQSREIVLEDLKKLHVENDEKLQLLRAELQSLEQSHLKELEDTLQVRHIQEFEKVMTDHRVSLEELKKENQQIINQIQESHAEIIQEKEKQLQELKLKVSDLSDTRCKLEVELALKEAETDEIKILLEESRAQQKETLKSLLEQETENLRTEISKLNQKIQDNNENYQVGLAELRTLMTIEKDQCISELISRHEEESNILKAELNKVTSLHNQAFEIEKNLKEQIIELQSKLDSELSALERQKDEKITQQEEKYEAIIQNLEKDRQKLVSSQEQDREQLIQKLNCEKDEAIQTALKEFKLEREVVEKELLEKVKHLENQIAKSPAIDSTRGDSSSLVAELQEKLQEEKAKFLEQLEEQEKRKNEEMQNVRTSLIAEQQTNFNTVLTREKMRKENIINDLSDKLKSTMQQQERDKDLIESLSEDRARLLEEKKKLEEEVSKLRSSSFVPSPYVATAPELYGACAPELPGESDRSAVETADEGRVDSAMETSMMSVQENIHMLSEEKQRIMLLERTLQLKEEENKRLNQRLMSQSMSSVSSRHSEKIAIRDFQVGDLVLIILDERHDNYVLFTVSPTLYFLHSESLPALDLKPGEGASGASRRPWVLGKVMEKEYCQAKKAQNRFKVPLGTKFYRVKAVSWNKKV

For experiment [1], the target named is NAP1 delta-FIP200 (I11S/L12S), bait of the bead assay (human) (UniProt Q9H6S1). Briefly: microscopy-based bead assay; Extended Data Fig. 3b: NAP1 wild type or point mutants on beads; NDP52–mCherry, FIP200–GFP and mCherry–TBK1 250 nM; 1 h; confocal imaging; both purified.

The values below come from paper PMC11564117, “Control of mitophagy initiation and progression by the TBK1 adaptors NAP1 and SINTBAD” (Nature Structural & Molecular Biology, 2024).

No constants are given. Whether binding was seen depends on the method and setting. For some assays here: A result given as binding can be weak or reduced; the word gives no strength.

Regarding “EGFP–TBK1 kinase-dead (KD) (from UniProt Q9UHD2) (enzyme)”, the binding result with OPTN-GST (human) is “binds”. Consider FIP200–GFP (from UniProt Q8TDY2 1-1594), for which the binding entry in experiment [1] is “no binding (tested: 250 nM)”.
